Measurements published in patent US20220396614A1.
These are yes or no findings as the source states them, for the method shown. Some entries that bind do so weakly or less than the wild type.

Assays:
[1] = target: T1, NPDP peptide (…), PfCSP N-terminal junction aa 101-116 (Plasmodium falciparum (NF54)); assay: SPR, KD on a log axis
T1 sequence (peptide): NPDPNANPNVDPNANP

[2] = target: NANP 5.5-mer peptide, NP(NANP)5, representative of the PfCSP central repeat (Plasmodium falciparum (NF54)); assay: SPR, KD on a log axis
[3] = target: T2, KQPA peptide (…), PfCSP N-terminal junction aa 95-109 (Plasmodium falciparum (NF54)); assay: SPR, KD on a log axis
T2 sequence (peptide): KQPADGNPDPNANPN

[4] = target: T1, NPDP peptide (…), PfCSP N-terminal junction aa 101-116 (Plasmodium falciparum (NF54)); assay: SPR (FIG. 5H)
[5] = target: NANP 5.5-mer peptide, NP(NANP)5, representative of the PfCSP central repeat (Plasmodium falciparum (NF54)); assay: SPR (FIG. 5H)
[6] = target: T2, KQPA peptide (…), PfCSP N-terminal junction aa 95-109 (Plasmodium falciparum (NF54)); assay: SPR (FIG. 5H)

Measured: binding

B1: monoclonal antibody 2541 (antibody, V domains shown)
VH: QVQLVESGGGVVQPGRSLRLSCAASGFTFSSYGMHWVRQTTGKGLEWVAIIWHDGSKKYYADSVKGRLTISRDNSKNTLYLQMNSLRVEDTALYYCARVGDYSDFKYGAFDIWGQGTMVTVSS
VL: DIQMTQSPSTLSASVGDRVTITCRASQSISSWLAWYQQKPGKAPNLLIYKASTLESGVPSRFSGSGSGTEFTLTISSLQPDDFATYYCQQYNSYWTFGQGTRVEIK
binds: all assays above
